These results are taken from PubChem BioAssay AID493014 (National Center for Advancing Translational Sciences (NCATS), 2011).

The other results are listed elsewhere or left out. Further columns of the screen follow, without active or inactive calls. Most of these compounds were active or inconclusive in the main read-out, so they are no random draw. The note in brackets gives the kind of curve behind each potency; many fits are weak.

The nature of the experiment: qHTS Assay to Find Inhibitors of Chronic Active B-Cell Receptor Signaling. Conditions: ABC-DLBCL IkBa-CBG/CBR reporter, luminescence ratio (green luciferase fused to IkBa over red control in TMD8 lymphoma cells), 4 h. Put shortly:
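TMD8 ABC-DLBCL cells carrying doxycycline-inducible green luciferase fused to IkappaBalpha plus unfused red luciferase were exposed to compounds (up to 46 uM) for 4 hrs at 37C. Activity came from the overlap-corrected green/red luminescence ratio.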
For orientation: In qHTS, concentration-response curves come from the screen itself.

Where [1] appears, read: measured here: CBR red luminescence, cell number.
The mark [2] stands for this setting: measured here: IkBa-CBG green luminescence.

In general, AC50 refers to the concentration giving half of the maximal activity seen. For the molecule `O=C(Nc1nc2c(Cl)ccc(Cl)c2s1)c1ccco1`, under setting [1], the AC50 is 0.517 µM [falling, full curve, poor fit].
Still for that read-out and setting: for `COc1ccc(N/C=C(/C(C)=O)c2ccccc2)cc1` the value was 11.6 µM [rising, partial curve].
The same measure, in the same setting: for `O=C(N/N=C/c1ccccc1[N+](=O)[O-])c1ccc(COc2ccccc2-c2ccccc2)cc1` the value was 4.61 µM [rising, partial curve, poor fit]; for `Clc1cccc(-n2ncc3c(N4CCN(Cc5ccccc5)CC4)ncnc32)c1`, 35.5 µM [falling, single point].
Still for that read-out and setting: for `O=C(CSc1nc2ccccc2c(=O)[nH]1)c1ccccc1` the value was 18.4 µM [falling, partial curve, poor fit].
In the case of `Cc1ccnc(SCC(=O)c2ccc(Br)s2)n1`, the AC50 under setting [1] is 35.5 µM [rising, single point].
Still for that read-out and setting: for `CCCC(=O)c1ccc(N2CCCC2)c(F)c1` the value was 18.4 µM [rising, single point]; for `COc1cccc(-c2nnc(NC(=O)c3cccc(F)c3)o2)c1`, 1.78 µM [falling, full curve].
With `Cc1ccc(NC(=O)Nc2cc(S(C)(=O)=O)ccc2Cl)cc1`, the AC50 under setting [1] is 2.51 µM [rising, partial curve].
Same read-out and setting: next, `C[C@H](CO)N1C[C@H](C)[C@@H](CN(C)S(=O)(=O)c2ccccc2)Oc2ccc(NC(=O)CCC(F)(F)F)cc2C1=O`: 20.6 µM [rising, single point].
As for `Cc1cccnc1NC(=O)c1cc2ccccc2oc1=O`, the AC50 under setting [1] is 2.24 µM [falling, partial curve, poor fit].
Take `Cc1[nH]c2ccccc2c1CCNC(=O)c1ccc2c(c1[N+](=O)[O-])C(=O)c1ccccc1C2=O`: under setting [1], the AC50 was 14.1 µM [falling, single point].
Still for that read-out and setting: next, `COC(=O)C1=C(COc2ccccc2)NC(=O)NC1c1ccc(Br)cc1` (stereo not drawn): 29.1 µM [falling, single point].
Same read-out and setting: for `Cc1cc(N(CC(=O)O)S(C)(=O)=O)ccc1Br` the value was 6.51 µM [rising, single point].
Same read-out and setting: for `CC(=O)OCC(=O)N1N=C(c2ccc3ccccc3c2)CC1c1ccccc1` (stereo not drawn) the value was 12.6 µM [falling, partial curve, poor fit]; for `CCOc1ccc(C)cc1S(=O)(=O)n1ccnc1`, 0.366 µM [rising, full curve, poor fit]; for `O=C(NCc1ccc(F)cc1)C1CCCN(C(=O)NCc2ccccc2)C1` (stereo not drawn), 12.6 µM [rising, partial curve, poor fit].
As for `CCn1c(Cc2ccc(OC)cc2)nnc1SCC(=O)Nc1cccc(C(=O)OC)c1`, the AC50 under setting [1] is 2.31 µM [falling, partial curve, poor fit].
The same measure, in the same setting: next, `COc1ccc(C(=O)Nc2ncc3c(n2)-c2ccccc2CC3)cc1`: 3.98 µM [falling, partial curve, poor fit]; `Cc1ccc(S(=O)(=O)N2CCCN(C)CC2)cc1`: 5.01 µM [rising, single point]; `CC(C)OC1(c2ccccc2)OC(=O)c2ccccc21` (stereo not drawn): 7.94 µM [rising, partial curve, poor fit].
Take `Cc1ccc(S(=O)(=O)NCCC(=O)NCCCSc2ccccc2)cc1`: the AC50 under setting [2] is 20.6 µM [falling, partial curve, poor fit].
Take `CSc1nsc(SCC(=O)Nc2nc3ccccc3s2)n1`: the AC50 runs as follows: under setting [1], 18.4 µM [falling, single point]; under setting [2], 18.4 µM [rising, partial curve, poor fit].
On to `Cc1c(Cl)cccc1N1CC(C(=O)Nc2nccs2)CC1=O` (stereo not drawn), for which the AC50 under setting [1] was 29.1 µM [falling, single point].
In the case of `S=C(NCc1cccs1)Nc1cccc(Cl)c1Cl`, the AC50 under setting [1] was 3.26 µM [rising, single point].
Still for that read-out and setting: next, `O=C1CN(C(=O)OCc2ccccc2)c2ccccc2N1`: 7.08 µM [falling, partial curve]; `CC1CCN(c2c([N+](=O)[O-])c(=O)oc3ccccc23)CC1`: 23.1 µM [falling, single point]; `CN(C)/N=C/c1ccc(/C=N/NC(N)=S)o1`: 14.1 µM [rising, partial curve, poor fit].
On the same count and under the same terms, for `O=C(Nc1cccc(NC(=O)c2ccco2)c1)c1ccc2c(c1)OCO2` the value was 2.82 µM [falling, full curve]; for `O=C(O)c1cc(N/N=C2/CC(c3ccccc3)Oc3ccccc32)ccc1Cl` (stereo not drawn), 23.1 µM [falling, single point].
Still for that read-out and setting: next, `CCc1c(C(=O)N/N=C/c2sccc2C)nnn1-c1nonc1N`: 3.55 µM [falling, full curve, poor fit]; `CC(NC(=O)CNC(=O)c1ccco1)c1ccc(S(N)(=O)=O)cc1` (stereo not drawn): 35.5 µM [falling, single point]; `C=CCOc1ccc(C2C(C(=O)c3ccco3)=C(O)C(=O)N2c2nnc(C)s2)cc1` (stereo not drawn): 35.5 µM [rising, single point].
As for `Cc1[nH]c2ccc(C(=O)N3CCN(c4cccc(Cl)c4)CC3)cc2c1C`, the half-maximal activity concentration (AC50) is, setting by setting: under setting [1], 4.47 µM [rising, partial curve, poor fit]; under setting [2], 11.2 µM [falling, partial curve, poor fit].
Consider `Cn1ncc2c(Nc3ccc(Br)cc3)nc(Nc3ccc(Br)cc3)nc21`, for which, under setting [1], the AC50 was 12.6 µM [falling, partial curve, poor fit].
In the case of `CC[N+](C)(CC)CCC[n+]1c(-c2ccccc2)c2cc(N)ccc2c2ccc(N)cc21`, under setting [1], the half-maximal activity concentration (AC50) was 29.1 µM [falling, single point].
The same measure, in the same setting: for `O=C(COc1ccc(Cl)cc1Cl)NC(=S)Nc1ccc(CN2CCOCC2)cc1` the value was 35.5 µM [rising, single point]; for `Nn1c(-c2ccccc2Cl)nnc1-c1ccccc1Cl`, 10.3 µM [falling, partial curve, poor fit].
`Cc1ccc(CNC(=O)Cc2cccs2)cc1`: the concentration at half-maximal activity (AC50) is 18.4 µM [falling, partial curve] under setting [1] and 16.4 µM [rising, partial curve, poor fit] under setting [2].
As to `O=C(O)CCCn1cc(NC(=O)c2sc3ccccc3c2Cl)cn1`, the AC50 is 0.562 µM [falling, full curve, poor fit] under setting [1] and 2.82 µM [falling, partial curve, poor fit] under setting [2].
Regarding `NCCCC[C@H]1CNC(=S)N1CCCCC1CCCCC1`, the AC50 under setting [1] was 10 µM [falling, partial curve, poor fit].
As for `O=C(N/N=C/c1cc([N+](=O)[O-])ccc1O)c1cccc2cc[nH]c12`, the AC50 under setting [1] is 11.2 µM [falling, partial curve].
On to `O=C(Nc1cccnc1)c1cc2nc(C3CC3)cc(C(F)(F)F)n2n1`, for which the AC50 under setting [1] was 3.26 µM [rising, full curve, poor fit].
As for `Cc1ccc(S(=O)(=O)CCC(=O)Nc2nnc(-c3cccs3)o2)cc1`, the AC50 by setting is: under setting [1], 18.4 µM [falling, single point]; under setting [2], 18.4 µM [rising, partial curve, poor fit].
As to `Cc1cc(=O)[nH]c(SCC(=O)Nc2ccc3c(c2)CCC3)c1C#N`, the AC50 under setting [1] was 3.66 µM [rising, single point].
As for `Cc1onc(-c2ccc(Cl)cc2)c1-c1ccnc(SCC(=O)Nc2ccc(C(C)C)cc2)n1`, the AC50 under setting [1] is 0.708 µM [rising, full curve, poor fit].
Same read-out and setting: next, `Cc1ccc(-c2csc3ncnc(N4CCN(S(=O)(=O)c5cccs5)CC4)c23)cc1`: 20.6 µM [rising, partial curve, poor fit]; `Cc1cc(C)c(NC(=O)COc2ccccc2C(=O)Nc2ccc3c(c2)oc2ccccc23)c(C)c1`: 0.461 µM [falling, full curve, poor fit].
Same read-out and setting: for `COc1cc(/C=N/NC(=O)c2ccc3c(c2)OCO3)ccc1O` the value was 3.55 µM [falling, partial curve]; for `COc1cc(CN(C(=S)NCC(=O)N2CCCC2)C2CCCC2)cc(OC)c1OC`, 10 µM [rising, partial curve, poor fit]; for `CC1CCCC(NC(=S)Nc2ccc(SC(F)F)cc2)C1C` (stereo not drawn), 13 µM [falling, single point].
On the same count and under the same terms, next, `N#C/C(=C/c1ccc(Sc2nc3ccccc3[nH]2)o1)c1cccc(F)c1`: 20.6 µM [falling, single point]; `CCOC(=O)c1cccc(N2C(=O)Nc3ccccc3N2O)c1`: 6.51 µM [rising, partial curve, poor fit]; `COc1ccc(CCC(=O)OCc2csc(CC(=O)Nc3ccc(C)cc3)n2)cc1OC`: 0.231 µM [rising, full curve, poor fit].
Turning to `CC(=O)c1cc(C#N)c(NCc2ccccc2)nc1C`, the AC50 under setting [1] was 12.6 µM [rising, partial curve, poor fit].
On the same count and under the same terms, for `O=C(NC1CCCCC1)c1ccc(S(=O)(=O)N2CCCCC2)cc1` the value was 32.6 µM [falling, partial curve, poor fit]; for `COc1cc(/C=C2/C(=O)c3cccc([N+](=O)[O-])c3C2=O)c(Br)cc1O`, 23.1 µM [falling, single point].
The same measure, in the same setting: next, `Oc1c(Cl)cc(Cl)cc1C=Nc1ccc(Br)cc1`: 10 µM [falling, partial curve].
Still for that read-out and setting: for `COc1cc2c(cc1NC(=O)c1cccc([N+](=O)[O-])c1)oc1ccccc12` the value was 1.64 µM [rising, single point]; for `CC(C)(C)NCC(O)COc1ccccc1C(=O)CCc1ccccc1` (stereo not drawn), 3.66 µM [rising, partial curve, poor fit].
For `COc1cc(C2C(C#N)=C(N)Oc3cc(O)ccc32)cc(OC)c1OC` (stereo not drawn), the AC50 reads like this: under setting [1], 3.16 µM [rising, single point]; under setting [2], 3.55 µM [falling, single point].
For the molecule `COc1ccc(OC)c(NC(=O)CSc2nc3ccccc3c(=O)n2CC2CCCO2)c1` (stereo not drawn), under setting [1], the AC50 is 3.16 µM [rising, full curve].
